Results are given in words; binding and its absence hold for the method and conditions named. In cells and extracts the contact can be indirect. Some results given as binding are weak or reduced against the parent protein; the word gives no strength.
Biological target: Connexin 43 (GJA1) (mouse (endogenous in TtT/GF)) (UniProt P23242)
Assay: co-IP; pre-cleared whole TtT/GF cell lysates (2 mg/ml) incubated overnight at 4°C with rabbit polyclonal anti-Cx43 or buffer (control), protein A Sepharose 4B beads 4 h at 4°C; Western blot with mouse anti-Cx50 or mouse anti-Cx43

The chains behind the UniProt entries cited, without tags or fusion partners.
UniProt P23242: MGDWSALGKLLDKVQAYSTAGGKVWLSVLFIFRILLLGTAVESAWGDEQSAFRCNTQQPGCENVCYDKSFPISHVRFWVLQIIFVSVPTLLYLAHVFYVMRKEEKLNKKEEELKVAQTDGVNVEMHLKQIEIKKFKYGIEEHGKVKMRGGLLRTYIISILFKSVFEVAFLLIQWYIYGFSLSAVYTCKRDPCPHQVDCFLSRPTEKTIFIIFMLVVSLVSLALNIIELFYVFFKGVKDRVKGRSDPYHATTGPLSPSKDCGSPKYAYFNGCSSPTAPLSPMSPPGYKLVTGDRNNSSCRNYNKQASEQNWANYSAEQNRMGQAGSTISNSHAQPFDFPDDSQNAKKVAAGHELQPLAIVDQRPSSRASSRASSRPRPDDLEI
UniProt P28236: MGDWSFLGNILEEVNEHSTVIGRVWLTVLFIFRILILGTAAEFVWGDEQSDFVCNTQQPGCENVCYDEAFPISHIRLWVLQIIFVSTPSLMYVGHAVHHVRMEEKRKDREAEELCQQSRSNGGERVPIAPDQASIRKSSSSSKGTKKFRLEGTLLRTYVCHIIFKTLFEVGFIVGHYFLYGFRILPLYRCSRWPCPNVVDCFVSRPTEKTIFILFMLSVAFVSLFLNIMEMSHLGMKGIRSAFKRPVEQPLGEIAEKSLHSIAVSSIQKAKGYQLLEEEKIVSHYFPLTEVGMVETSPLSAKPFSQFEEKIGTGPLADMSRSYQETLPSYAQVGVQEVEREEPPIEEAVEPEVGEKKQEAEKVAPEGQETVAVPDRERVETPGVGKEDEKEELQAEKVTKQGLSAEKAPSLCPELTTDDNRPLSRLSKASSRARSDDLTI

Connexin 50 (GJA8) (from UniProt P28236 1-440)
binding: binds
